# Some of the results follow.
# The chains behind the UniProt entries cited, without tags or fusion partners. Where a name states a change or a piece, a line headed by the entry shows the natural chain unless it says otherwise.
# UniProt Q6UWE0: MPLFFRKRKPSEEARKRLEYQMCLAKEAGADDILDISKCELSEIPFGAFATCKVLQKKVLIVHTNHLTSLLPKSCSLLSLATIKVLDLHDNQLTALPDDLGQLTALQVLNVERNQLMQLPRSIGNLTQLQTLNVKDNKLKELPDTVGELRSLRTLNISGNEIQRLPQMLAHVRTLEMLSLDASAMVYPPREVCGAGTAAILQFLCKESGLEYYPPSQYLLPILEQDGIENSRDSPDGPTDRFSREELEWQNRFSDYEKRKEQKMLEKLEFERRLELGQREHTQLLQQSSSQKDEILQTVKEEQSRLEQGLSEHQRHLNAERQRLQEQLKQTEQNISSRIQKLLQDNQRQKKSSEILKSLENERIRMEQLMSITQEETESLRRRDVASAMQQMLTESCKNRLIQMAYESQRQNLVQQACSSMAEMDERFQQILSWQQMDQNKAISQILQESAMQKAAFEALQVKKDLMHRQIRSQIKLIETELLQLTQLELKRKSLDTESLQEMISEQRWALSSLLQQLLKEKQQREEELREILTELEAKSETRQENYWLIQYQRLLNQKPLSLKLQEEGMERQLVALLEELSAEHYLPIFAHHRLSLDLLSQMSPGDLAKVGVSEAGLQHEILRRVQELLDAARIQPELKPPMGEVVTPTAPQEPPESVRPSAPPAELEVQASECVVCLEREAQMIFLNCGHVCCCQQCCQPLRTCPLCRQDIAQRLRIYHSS
# UniProt Q9GZY6: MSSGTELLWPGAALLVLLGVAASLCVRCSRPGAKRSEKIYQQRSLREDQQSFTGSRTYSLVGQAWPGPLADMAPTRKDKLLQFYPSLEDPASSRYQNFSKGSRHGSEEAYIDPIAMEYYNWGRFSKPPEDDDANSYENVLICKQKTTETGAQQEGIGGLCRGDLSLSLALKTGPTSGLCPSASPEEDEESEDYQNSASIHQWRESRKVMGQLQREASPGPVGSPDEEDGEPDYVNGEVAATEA
# UniProt Q14114: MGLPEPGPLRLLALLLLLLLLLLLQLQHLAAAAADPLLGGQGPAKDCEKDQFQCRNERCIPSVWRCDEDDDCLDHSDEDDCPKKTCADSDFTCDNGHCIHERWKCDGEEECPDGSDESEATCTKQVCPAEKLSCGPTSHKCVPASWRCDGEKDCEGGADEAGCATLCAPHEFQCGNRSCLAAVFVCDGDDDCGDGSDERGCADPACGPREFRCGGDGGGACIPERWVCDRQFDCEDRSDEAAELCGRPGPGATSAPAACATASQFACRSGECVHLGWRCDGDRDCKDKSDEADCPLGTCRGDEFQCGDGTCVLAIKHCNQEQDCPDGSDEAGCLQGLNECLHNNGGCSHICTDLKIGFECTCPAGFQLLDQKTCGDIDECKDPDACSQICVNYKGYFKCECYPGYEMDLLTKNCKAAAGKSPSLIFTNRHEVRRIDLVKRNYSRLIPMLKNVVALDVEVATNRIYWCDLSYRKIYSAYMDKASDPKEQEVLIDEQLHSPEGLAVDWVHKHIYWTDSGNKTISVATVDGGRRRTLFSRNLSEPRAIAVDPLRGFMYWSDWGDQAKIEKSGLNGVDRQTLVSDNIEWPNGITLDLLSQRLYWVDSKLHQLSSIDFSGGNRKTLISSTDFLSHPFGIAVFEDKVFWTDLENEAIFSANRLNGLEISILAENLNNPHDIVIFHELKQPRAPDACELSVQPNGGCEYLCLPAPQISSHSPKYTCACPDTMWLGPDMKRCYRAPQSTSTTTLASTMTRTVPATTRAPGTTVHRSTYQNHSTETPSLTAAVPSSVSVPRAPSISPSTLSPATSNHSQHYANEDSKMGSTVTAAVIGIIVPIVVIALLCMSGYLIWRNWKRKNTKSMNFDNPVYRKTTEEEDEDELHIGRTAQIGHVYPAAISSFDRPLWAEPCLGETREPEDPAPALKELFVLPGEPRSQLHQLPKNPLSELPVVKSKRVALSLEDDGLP
# UniProt P20645: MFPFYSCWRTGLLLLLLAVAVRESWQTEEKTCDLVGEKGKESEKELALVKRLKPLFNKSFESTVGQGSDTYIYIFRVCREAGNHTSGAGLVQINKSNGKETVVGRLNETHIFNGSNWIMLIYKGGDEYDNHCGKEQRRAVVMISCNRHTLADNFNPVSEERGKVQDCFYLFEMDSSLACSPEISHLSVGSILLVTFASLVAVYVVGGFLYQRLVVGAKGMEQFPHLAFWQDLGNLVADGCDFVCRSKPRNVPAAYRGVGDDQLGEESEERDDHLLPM
# UniProt O95777: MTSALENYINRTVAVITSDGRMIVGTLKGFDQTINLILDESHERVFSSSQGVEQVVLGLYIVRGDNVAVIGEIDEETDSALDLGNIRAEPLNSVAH
# UniProt Q99698: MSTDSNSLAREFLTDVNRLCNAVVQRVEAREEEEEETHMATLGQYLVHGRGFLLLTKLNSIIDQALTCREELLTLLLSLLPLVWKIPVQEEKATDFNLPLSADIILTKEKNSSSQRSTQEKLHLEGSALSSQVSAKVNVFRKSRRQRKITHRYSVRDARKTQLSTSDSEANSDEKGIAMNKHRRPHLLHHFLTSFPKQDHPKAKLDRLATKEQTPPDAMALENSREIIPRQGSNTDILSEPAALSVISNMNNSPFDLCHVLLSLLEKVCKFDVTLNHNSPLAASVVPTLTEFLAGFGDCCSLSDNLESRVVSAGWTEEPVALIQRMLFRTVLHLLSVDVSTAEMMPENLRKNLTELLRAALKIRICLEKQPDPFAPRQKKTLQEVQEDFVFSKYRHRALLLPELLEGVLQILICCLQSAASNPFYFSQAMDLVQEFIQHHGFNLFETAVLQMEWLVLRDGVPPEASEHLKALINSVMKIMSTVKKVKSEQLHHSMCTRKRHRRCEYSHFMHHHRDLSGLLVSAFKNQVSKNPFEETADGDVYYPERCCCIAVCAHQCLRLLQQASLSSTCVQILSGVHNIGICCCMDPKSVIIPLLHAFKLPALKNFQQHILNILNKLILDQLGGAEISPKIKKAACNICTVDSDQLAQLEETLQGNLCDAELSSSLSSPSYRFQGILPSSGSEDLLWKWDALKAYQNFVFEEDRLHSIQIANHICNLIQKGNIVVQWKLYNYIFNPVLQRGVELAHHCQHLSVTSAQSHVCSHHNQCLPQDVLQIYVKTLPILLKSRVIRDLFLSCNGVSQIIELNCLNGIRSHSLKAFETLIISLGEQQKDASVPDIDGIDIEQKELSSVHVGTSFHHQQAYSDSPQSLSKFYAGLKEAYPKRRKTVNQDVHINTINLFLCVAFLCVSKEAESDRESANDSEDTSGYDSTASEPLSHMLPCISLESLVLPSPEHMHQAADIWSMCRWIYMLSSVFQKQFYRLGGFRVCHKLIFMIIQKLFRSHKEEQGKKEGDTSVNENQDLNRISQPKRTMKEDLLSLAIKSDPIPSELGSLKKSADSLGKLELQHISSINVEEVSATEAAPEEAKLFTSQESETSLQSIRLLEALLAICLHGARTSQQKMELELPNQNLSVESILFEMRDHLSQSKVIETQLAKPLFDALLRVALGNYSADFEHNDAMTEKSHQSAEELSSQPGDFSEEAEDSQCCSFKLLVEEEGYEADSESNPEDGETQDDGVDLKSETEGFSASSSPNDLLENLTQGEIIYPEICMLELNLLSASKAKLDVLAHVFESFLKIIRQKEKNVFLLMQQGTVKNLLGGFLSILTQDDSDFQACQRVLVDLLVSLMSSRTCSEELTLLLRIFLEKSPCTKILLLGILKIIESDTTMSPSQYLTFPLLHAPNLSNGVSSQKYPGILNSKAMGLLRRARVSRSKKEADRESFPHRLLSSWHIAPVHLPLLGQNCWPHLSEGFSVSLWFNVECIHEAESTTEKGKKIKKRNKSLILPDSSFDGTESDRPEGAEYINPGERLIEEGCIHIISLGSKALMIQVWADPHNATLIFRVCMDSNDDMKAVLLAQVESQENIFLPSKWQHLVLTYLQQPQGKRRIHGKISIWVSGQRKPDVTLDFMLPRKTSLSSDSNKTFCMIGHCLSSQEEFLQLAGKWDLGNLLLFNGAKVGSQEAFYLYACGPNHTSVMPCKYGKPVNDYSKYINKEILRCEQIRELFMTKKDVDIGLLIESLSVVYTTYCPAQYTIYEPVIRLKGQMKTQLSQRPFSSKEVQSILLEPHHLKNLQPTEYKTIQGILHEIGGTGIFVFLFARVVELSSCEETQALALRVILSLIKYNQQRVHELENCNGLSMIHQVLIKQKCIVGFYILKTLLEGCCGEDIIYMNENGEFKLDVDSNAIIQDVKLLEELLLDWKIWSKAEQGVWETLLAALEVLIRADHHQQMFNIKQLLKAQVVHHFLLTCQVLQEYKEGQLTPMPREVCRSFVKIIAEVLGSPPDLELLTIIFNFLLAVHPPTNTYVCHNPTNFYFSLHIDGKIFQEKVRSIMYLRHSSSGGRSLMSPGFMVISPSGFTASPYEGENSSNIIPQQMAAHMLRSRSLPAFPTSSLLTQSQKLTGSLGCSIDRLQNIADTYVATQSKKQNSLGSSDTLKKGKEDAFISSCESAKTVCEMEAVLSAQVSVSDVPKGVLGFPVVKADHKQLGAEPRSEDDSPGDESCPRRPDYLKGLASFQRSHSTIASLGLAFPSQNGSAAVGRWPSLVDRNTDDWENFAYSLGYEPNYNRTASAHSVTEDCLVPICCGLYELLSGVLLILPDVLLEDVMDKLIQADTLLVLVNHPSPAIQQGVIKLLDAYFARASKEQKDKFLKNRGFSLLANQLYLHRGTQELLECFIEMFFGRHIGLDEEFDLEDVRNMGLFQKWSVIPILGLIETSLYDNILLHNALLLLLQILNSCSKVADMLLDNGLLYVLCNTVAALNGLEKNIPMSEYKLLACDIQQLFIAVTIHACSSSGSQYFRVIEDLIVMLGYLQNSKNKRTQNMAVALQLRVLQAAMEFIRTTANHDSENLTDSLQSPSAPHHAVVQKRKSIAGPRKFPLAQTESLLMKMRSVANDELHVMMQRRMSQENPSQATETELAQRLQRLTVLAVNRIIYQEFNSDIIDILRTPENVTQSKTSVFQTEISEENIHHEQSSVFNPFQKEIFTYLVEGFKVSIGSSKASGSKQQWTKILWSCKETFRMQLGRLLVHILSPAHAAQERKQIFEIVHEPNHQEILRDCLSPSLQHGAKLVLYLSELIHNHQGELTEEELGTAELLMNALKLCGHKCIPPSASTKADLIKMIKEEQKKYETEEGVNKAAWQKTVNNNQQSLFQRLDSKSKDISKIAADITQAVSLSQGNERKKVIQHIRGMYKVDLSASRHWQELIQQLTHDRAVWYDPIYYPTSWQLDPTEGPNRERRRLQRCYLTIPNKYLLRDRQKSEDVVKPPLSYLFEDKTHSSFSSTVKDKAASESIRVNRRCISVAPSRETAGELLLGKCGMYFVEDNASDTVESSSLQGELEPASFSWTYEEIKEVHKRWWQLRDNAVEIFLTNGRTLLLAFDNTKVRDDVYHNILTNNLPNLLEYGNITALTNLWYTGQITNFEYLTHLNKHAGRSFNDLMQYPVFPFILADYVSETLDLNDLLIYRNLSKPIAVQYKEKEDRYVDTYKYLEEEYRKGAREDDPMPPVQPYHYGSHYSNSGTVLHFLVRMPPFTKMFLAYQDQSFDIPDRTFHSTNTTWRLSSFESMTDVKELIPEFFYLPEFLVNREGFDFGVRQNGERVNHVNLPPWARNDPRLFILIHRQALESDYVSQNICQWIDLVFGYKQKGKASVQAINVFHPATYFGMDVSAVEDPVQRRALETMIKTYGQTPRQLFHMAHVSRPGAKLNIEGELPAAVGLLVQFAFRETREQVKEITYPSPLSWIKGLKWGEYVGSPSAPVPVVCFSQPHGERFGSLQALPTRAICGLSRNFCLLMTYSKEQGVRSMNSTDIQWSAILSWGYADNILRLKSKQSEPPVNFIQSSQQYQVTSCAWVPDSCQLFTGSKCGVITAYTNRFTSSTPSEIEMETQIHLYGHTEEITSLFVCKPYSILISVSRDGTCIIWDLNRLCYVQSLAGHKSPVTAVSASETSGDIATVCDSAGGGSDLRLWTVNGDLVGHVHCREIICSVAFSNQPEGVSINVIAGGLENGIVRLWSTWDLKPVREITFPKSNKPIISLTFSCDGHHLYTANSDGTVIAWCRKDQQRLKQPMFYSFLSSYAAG
# Compound: COc1ccc(Cn2ccc3cc(C)c(C(=O)NO)cc32)cc1
# Experiment: dose-dependent thermal stabilisation call (2D-TPP, DLPTP, 10% FDR) (binary (1 = stabilised)); higher = stabilised by the compound
# Conditions: system: HL-60 intact cells; concentration range 0.04-10 µM
# Method: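 2D thermal proteome profiling in intact HL-60 cells treated with BRD-3811 (0, 0.04, 0.29, 2, 10 uM) for 90 min at 37 C, then heated 3 min at one of 12 temperatures (42-63.9 C). Soluble protein was quantified by TMT10 MS. The value is the DLPTP call of the paper: dose-dependent thermal stabilisation over all temperatures at 10% FDR (F-test of a dose-response against a flat model); one experiment, one call per tested protein.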
row,Target,dose-dependent thermal stabilisation call
1,LRSAM1 (UniProt Q6UWE0),inactive: 0
2,LBA1 (UniProt O15050),inactive: 0
3,LAT2 (UniProt Q9GZY6),inactive: 0
4,LRP8 (UniProt Q14114),inactive: 0
5,M6PR (UniProt P20645),inactive: 0
6,MAML1 (UniProt Q92585),inactive: 0
7,LSM8 (UniProt O95777),inactive: 0
8,LYST (UniProt Q99698),inactive: 0

# Source: the supplement of paper PMC7666118
